Source: patent US20220089670A1
These are yes or no findings as the source states them, for the method shown. Binding seen in cells or lysates may run through a third protein. Some binding calls cover weakened binding; strength is not graded here. Sequences can lack the tags named with a protein.

T1: WT BEST1-CFP-Myc (human) (UniProt O76090)
T1 sequence: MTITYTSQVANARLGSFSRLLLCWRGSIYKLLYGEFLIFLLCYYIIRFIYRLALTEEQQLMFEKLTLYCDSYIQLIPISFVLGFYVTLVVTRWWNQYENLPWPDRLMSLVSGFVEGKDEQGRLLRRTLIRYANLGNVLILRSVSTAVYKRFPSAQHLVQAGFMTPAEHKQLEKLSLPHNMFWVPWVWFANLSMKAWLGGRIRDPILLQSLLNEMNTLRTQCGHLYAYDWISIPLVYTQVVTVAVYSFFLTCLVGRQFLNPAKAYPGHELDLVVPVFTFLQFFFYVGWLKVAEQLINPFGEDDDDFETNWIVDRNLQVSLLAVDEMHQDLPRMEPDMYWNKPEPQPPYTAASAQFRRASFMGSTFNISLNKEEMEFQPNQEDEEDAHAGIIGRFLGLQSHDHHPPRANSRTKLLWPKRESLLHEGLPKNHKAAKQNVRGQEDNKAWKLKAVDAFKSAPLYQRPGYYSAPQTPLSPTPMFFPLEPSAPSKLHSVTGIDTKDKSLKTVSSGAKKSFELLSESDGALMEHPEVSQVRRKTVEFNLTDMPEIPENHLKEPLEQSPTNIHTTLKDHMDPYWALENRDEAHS

B1: BEST1 A10T-YFP-His (protein, not shown: large carriers; small tags and cut ends)
chain: MTITYTSQVTNARLGSFSRLLLCWRGSIYKLLYGEFLIFLLCYYIIRFIYRLALTEEQQLMFEKLTLYCDSYIQLIPISFVLGFYVTLVVTRWWNQYENLPWPDRLMSLVSGFVEGKDEQGRLLRRTLIRYANLGNVLILRSVSTAVYKRFPSAQHLVQAGFMTPAEHKQLEKLSLPHNMFWVPWVWFANLSMKAWLGGRIRDPILLQSLLNEMNTLRTQCGHLYAYDWISIPLVYTQVVTVAVYSFFLTCLVGRQFLNPAKAYPGHELDLVVPVFTFLQFFFYVGWLKVAEQLINPFGEDDDDFETNWIVDRNLQVSLLAVDEMHQDLPRMEPDMYWNKPEPQPPYTAASAQFRRASFMGSTFNISLNKEEMEFQPNQEDEEDAHAGIIGRFLGLQSHDHHPPRANSRTKLLWPKRESLLHEGLPKNHKAAKQNVRGQEDNKAWKLKAVDAFKSAPLYQRPGYYSAPQTPLSPTPMFFPLEPSAPSKLHSVTGIDTKDKSLKTVSSGAKKSFELLSESDGALMEHPEVSQVRRKTVEFNLTDMPEIPENHLKEPLEQSPTNIHTTLKDHMDPYWALENRDEAHS
B2: BEST1 R218H-YFP-His (protein, not shown: large carriers; small tags and cut ends)
chain: MTITYTSQVANARLGSFSRLLLCWRGSIYKLLYGEFLIFLLCYYIIRFIYRLALTEEQQLMFEKLTLYCDSYIQLIPISFVLGFYVTLVVTRWWNQYENLPWPDRLMSLVSGFVEGKDEQGRLLRRTLIRYANLGNVLILRSVSTAVYKRFPSAQHLVQAGFMTPAEHKQLEKLSLPHNMFWVPWVWFANLSMKAWLGGRIRDPILLQSLLNEMNTLHTQCGHLYAYDWISIPLVYTQVVTVAVYSFFLTCLVGRQFLNPAKAYPGHELDLVVPVFTFLQFFFYVGWLKVAEQLINPFGEDDDDFETNWIVDRNLQVSLLAVDEMHQDLPRMEPDMYWNKPEPQPPYTAASAQFRRASFMGSTFNISLNKEEMEFQPNQEDEEDAHAGIIGRFLGLQSHDHHPPRANSRTKLLWPKRESLLHEGLPKNHKAAKQNVRGQEDNKAWKLKAVDAFKSAPLYQRPGYYSAPQTPLSPTPMFFPLEPSAPSKLHSVTGIDTKDKSLKTVSSGAKKSFELLSESDGALMEHPEVSQVRRKTVEFNLTDMPEIPENHLKEPLEQSPTNIHTTLKDHMDPYWALENRDEAHS
B3: BEST1 L234P-YFP-His (protein, not shown: large carriers; small tags and cut ends)
chain: MTITYTSQVANARLGSFSRLLLCWRGSIYKLLYGEFLIFLLCYYIIRFIYRLALTEEQQLMFEKLTLYCDSYIQLIPISFVLGFYVTLVVTRWWNQYENLPWPDRLMSLVSGFVEGKDEQGRLLRRTLIRYANLGNVLILRSVSTAVYKRFPSAQHLVQAGFMTPAEHKQLEKLSLPHNMFWVPWVWFANLSMKAWLGGRIRDPILLQSLLNEMNTLRTQCGHLYAYDWISIPPVYTQVVTVAVYSFFLTCLVGRQFLNPAKAYPGHELDLVVPVFTFLQFFFYVGWLKVAEQLINPFGEDDDDFETNWIVDRNLQVSLLAVDEMHQDLPRMEPDMYWNKPEPQPPYTAASAQFRRASFMGSTFNISLNKEEMEFQPNQEDEEDAHAGIIGRFLGLQSHDHHPPRANSRTKLLWPKRESLLHEGLPKNHKAAKQNVRGQEDNKAWKLKAVDAFKSAPLYQRPGYYSAPQTPLSPTPMFFPLEPSAPSKLHSVTGIDTKDKSLKTVSSGAKKSFELLSESDGALMEHPEVSQVRRKTVEFNLTDMPEIPENHLKEPLEQSPTNIHTTLKDHMDPYWALENRDEAHS
B4: BEST1 Q293K-YFP-His (protein, not shown: large carriers; small tags and cut ends)
chain: MTITYTSQVANARLGSFSRLLLCWRGSIYKLLYGEFLIFLLCYYIIRFIYRLALTEEQQLMFEKLTLYCDSYIQLIPISFVLGFYVTLVVTRWWNQYENLPWPDRLMSLVSGFVEGKDEQGRLLRRTLIRYANLGNVLILRSVSTAVYKRFPSAQHLVQAGFMTPAEHKQLEKLSLPHNMFWVPWVWFANLSMKAWLGGRIRDPILLQSLLNEMNTLRTQCGHLYAYDWISIPLVYTQVVTVAVYSFFLTCLVGRQFLNPAKAYPGHELDLVVPVFTFLQFFFYVGWLKVAEKLINPFGEDDDDFETNWIVDRNLQVSLLAVDEMHQDLPRMEPDMYWNKPEPQPPYTAASAQFRRASFMGSTFNISLNKEEMEFQPNQEDEEDAHAGIIGRFLGLQSHDHHPPRANSRTKLLWPKRESLLHEGLPKNHKAAKQNVRGQEDNKAWKLKAVDAFKSAPLYQRPGYYSAPQTPLSPTPMFFPLEPSAPSKLHSVTGIDTKDKSLKTVSSGAKKSFELLSESDGALMEHPEVSQVRRKTVEFNLTDMPEIPENHLKEPLEQSPTNIHTTLKDHMDPYWALENRDEAHS
B5: BEST1 D302A-YFP-His (protein, not shown: large carriers; small tags and cut ends)
chain: MTITYTSQVANARLGSFSRLLLCWRGSIYKLLYGEFLIFLLCYYIIRFIYRLALTEEQQLMFEKLTLYCDSYIQLIPISFVLGFYVTLVVTRWWNQYENLPWPDRLMSLVSGFVEGKDEQGRLLRRTLIRYANLGNVLILRSVSTAVYKRFPSAQHLVQAGFMTPAEHKQLEKLSLPHNMFWVPWVWFANLSMKAWLGGRIRDPILLQSLLNEMNTLRTQCGHLYAYDWISIPLVYTQVVTVAVYSFFLTCLVGRQFLNPAKAYPGHELDLVVPVFTFLQFFFYVGWLKVAEQLINPFGEDADDFETNWIVDRNLQVSLLAVDEMHQDLPRMEPDMYWNKPEPQPPYTAASAQFRRASFMGSTFNISLNKEEMEFQPNQEDEEDAHAGIIGRFLGLQSHDHHPPRANSRTKLLWPKRESLLHEGLPKNHKAAKQNVRGQEDNKAWKLKAVDAFKSAPLYQRPGYYSAPQTPLSPTPMFFPLEPSAPSKLHSVTGIDTKDKSLKTVSSGAKKSFELLSESDGALMEHPEVSQVRRKTVEFNLTDMPEIPENHLKEPLEQSPTNIHTTLKDHMDPYWALENRDEAHS

Target: T1, WT BEST1-CFP-Myc (human)
Assay: co-immunoprecipitation (anti-Myc IP, anti-His immunoblot) from co-transfected HEK293 cells

binding, binds:
B1
B2
B3
B4
B5
